Measurements taken from PMC12691697.
No constants are given. Whether binding was seen depends on the method and setting. In cells and extracts the contact can be indirect. For some of these results: Binding can be weak; no strength is given. Where a sequence is shown, tags or fusion partners need not be part of it.

T1: FLAG-tagged GBP5 (guanylate-binding protein 5) (UniProt Q96PP8)
T1 sequence: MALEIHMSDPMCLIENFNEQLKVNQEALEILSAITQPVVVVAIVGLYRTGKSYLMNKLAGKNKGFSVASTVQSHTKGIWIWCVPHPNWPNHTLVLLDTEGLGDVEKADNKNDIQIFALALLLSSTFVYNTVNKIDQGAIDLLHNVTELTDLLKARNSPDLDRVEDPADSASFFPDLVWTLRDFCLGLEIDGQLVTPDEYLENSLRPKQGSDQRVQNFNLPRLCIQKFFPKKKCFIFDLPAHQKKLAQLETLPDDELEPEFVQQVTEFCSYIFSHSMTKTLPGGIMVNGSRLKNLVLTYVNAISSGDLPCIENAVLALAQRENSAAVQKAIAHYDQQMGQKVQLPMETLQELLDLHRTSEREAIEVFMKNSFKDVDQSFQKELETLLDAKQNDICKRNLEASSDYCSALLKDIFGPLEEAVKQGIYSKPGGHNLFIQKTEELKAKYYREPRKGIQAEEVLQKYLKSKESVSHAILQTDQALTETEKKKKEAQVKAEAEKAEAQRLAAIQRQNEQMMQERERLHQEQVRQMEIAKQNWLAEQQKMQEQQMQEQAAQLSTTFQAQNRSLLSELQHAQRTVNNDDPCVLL

B1: MYC-tagged RPN1 (protein, UniProt P04843 24-607)
chain: ASSEAPPLINEDVKRTVDLSSHLAKVTAEVVLAHLGGGSTSRATSFLLALEPELEARLAHLGVQVKGEDEEENNLEVRETKIKGKSGRFFTVKLPVALDPGAKISVIVETVYTHVLHPYPTQITQSEKQFVVFEGNHYFYSPYPTKTQTMRVKLASRNVESYTKLGNPTRSEDLLDYGPFRDVPAYSQDTFKVHYENNSPFLTITSMTRVIEVSHWGNIAVEENVDLKHTGAVLKGPFSRYDYQRQPDSGISSIRSFKTILPAAAQDVYYRDEIGNVSTSHLLILDDSVEMEIRPRFPLFGGWKTHYIVGYNLPSYEYLYNLGDQYALKMRFVDHVFDEQVIDSLTVKIILPEGAKNIEIDSPYEISRAPDELHYTYLDTFGRPVIVAYKKNLVEQHIQDIVVHYTFNKVLMLQEPLLVVAAFYILFFTVIIYVRLDFSITKDPAAEARMKVACITEQVLTLVNKRIGLYRHFDETVNRYKQSRDISTLNSGKKSLETEHKALTSEIALLQSRLKTEGSDLCDRVSEMQKLDAQVKELVLKSAVEAERLVAGKLKKDTYIENEKLISGKRQELVTKIDHILDAL
B2: MYC-tagged DDOST (protein, UniProt P39656 43-456)
chain: SGPRTLVLLDNLNVRETHSLFFRSLKDRGFELTFKTADDPSLSLIKYGEFLYDNLIIFSPSVEDFGGNINVETISAFIDGGGSVLVAASSDIGDPLRELGSECGIEFDEEKTAVIDHHNYDISDLGQHTLIVADTENLLKAPTIVGKSSLNPILFRGVGMVADPDNPLVLDILTGSSTSYSFFPDKPITQYPHAVGKNTLLIAGLQARNNARVIFSGSLDFFSDSFFNSAVQKAAPGSQRYSQTGNYELAVALSRWVFKEEGVLRVGPVSHHRVGETAPPNAYTVTDLVEYSIVIQQLSNGKWVPFDGDDIQLEFVRIDPFVRTFLKKKGGKYSVQFKLPDVYGVFQFKVDYNRLGYTHLYSSTQVSVRPLQHTQYERFIPSAYPYYASAFSMMLGLFIFSIVFLHMKEKEKSD

Assays:
Experiment in all cases: co-IP; HEK 293T cells co-transfected 48 h with FLAG-GBP5 constructs and MYC-tagged OST subunits; lysates immunoprecipitated with anti-FLAG on Dynabeads Protein G overnight at 4°C; washes include Pierce IP Lysis Buffer with 500 mM NaCl; anti-MYC blot
[1] = target: T1, FLAG-tagged GBP5 (guanylate-binding protein 5)
[2] = target: FLAG-GBP5 mutant M4 (deletion of the GTPase effector domain (GED))
[3] = target: FLAG-GBP5 mutant M1 (deletion of the large GTPase (LG) domain)

Row | Molecule | binding [1] | binding [2] | binding [3]
1 | MYC-tagged RPN2 deleted for its C-terminal cytoplasmic tail (domain or fragment) | no binding | – | –
2 | MYC-tagged RPN1 deleted for its C-terminal cytoplasmic tail (domain or fragment) | no binding | – | –
3 | MYC-tagged DDOST deleted for its C-terminal cytoplasmic tail (domain or fragment) | no binding | – | –
4 | B1 | – | binds | binds
5 | B2 | – | binds | binds
